Results from US20170158765A1 (Merck Sharp & Dohme, published 2017).
No constants are given. Whether binding was seen depends on the method and setting. Some results given as binding are weak or reduced against the parent protein; the word gives no strength.

Sequences of proteins named here, by UniProt entry; tags and fusion partners are left off. Residues count along the entry.
UniProt O75022, residues 24-443: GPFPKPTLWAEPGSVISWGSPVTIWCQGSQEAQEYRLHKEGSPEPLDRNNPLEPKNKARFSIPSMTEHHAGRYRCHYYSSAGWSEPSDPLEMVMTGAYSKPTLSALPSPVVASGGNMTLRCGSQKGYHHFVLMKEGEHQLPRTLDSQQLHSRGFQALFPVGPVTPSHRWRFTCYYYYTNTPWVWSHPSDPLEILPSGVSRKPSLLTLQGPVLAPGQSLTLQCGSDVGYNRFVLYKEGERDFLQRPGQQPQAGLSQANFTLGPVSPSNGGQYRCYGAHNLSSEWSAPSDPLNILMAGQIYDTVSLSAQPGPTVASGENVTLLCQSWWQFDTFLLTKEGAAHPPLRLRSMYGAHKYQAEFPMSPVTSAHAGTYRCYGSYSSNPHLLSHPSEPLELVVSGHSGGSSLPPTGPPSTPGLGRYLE

Target: human ILT5-mouse Ig fusion protein (soluble, purified from transiently transfected 293 cells) (human) (UniProt O75022)
Experiment: ELISA of hybridoma supernatants on purified hILT5-Ig

B1: TRX585 mouse anti-human ILT5 monoclonal antibody (8G6 mAb, IgG1, kappa) (antibody, V domains shown)
VH: DVQLQESGPGLVKPSQSLFLTCSVTGYSISSSYYWNWIRQFPGNKLEWMGYISFDGSNNYNPSLKNRISITRDTSKNQFFLKLNSVTTEDTATYYCAREKENYYGSSFYYFDYWGLGTSLTVSS
VL: DIQMTQSPASLSVSVGETVTITCRASENIYSNLAWYQQKQGKSPQVLVYAATNLADGVPSRFSGSGSGTQFSLKINSLQSEDFGNYFCQHFWRIPWTFGGGTKLEIK
notes: Murine IgG1, kappa purified from hybridoma supernatant; also called TRX585 antibody; TRX585 mAb
binding: binds
